In publication PMC10683620:
Results are given in words; binding and its absence hold for the method and conditions named. Binding seen in cells or lysates may run through a third protein. A yes stands for co-enrichment or nearness to the bait. Other partners may have been found. Each block holds one molecule with its values, some of them ahead of it.

Protein sequences, listed by entry. Tags and fused reporters are not part of them. Lines headed by an entry give the natural chain unless they say otherwise; changes in a name come on top.
UniProt O75367: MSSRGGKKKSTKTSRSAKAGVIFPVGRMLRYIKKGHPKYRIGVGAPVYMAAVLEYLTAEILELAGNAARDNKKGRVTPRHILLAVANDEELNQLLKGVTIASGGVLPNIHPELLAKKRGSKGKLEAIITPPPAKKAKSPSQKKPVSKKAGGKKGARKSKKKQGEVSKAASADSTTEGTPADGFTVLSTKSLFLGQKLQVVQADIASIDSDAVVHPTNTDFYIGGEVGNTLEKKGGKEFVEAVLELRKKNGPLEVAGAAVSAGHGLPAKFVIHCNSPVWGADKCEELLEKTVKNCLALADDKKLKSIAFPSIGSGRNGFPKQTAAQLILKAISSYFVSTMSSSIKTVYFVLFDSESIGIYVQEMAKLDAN
UniProt Q9BSJ2: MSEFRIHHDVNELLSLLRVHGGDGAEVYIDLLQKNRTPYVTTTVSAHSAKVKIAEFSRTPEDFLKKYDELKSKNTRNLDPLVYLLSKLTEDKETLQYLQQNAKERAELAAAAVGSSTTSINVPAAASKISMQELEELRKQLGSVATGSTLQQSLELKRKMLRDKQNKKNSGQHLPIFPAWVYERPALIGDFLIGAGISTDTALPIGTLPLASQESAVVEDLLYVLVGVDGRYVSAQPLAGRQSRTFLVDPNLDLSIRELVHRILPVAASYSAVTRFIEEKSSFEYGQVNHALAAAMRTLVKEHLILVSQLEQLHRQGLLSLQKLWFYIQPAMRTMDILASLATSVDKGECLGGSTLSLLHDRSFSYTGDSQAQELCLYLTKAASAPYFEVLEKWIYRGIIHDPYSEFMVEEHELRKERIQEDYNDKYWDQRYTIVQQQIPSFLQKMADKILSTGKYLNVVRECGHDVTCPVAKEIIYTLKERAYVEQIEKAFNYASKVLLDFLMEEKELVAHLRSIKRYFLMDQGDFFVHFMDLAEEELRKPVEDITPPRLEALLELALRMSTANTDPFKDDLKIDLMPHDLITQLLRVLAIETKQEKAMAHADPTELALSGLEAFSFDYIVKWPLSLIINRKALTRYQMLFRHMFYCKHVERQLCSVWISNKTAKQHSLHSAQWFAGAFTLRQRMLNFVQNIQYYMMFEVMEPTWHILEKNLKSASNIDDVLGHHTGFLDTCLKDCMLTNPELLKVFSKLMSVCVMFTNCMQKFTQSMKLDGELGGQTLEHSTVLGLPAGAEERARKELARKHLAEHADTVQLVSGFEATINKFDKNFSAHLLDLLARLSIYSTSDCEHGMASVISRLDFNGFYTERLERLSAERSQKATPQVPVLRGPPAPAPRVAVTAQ
UniProt Q96GD4: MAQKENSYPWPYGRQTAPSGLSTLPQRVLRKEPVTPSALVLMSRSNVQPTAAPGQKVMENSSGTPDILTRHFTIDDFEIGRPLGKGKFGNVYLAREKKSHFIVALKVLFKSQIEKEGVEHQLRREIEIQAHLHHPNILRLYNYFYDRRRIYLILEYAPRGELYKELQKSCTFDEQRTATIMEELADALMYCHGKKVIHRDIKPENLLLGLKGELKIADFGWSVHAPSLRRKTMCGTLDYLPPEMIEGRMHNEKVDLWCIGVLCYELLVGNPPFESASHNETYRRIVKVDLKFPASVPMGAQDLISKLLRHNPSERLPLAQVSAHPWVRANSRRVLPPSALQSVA
UniProt P21333: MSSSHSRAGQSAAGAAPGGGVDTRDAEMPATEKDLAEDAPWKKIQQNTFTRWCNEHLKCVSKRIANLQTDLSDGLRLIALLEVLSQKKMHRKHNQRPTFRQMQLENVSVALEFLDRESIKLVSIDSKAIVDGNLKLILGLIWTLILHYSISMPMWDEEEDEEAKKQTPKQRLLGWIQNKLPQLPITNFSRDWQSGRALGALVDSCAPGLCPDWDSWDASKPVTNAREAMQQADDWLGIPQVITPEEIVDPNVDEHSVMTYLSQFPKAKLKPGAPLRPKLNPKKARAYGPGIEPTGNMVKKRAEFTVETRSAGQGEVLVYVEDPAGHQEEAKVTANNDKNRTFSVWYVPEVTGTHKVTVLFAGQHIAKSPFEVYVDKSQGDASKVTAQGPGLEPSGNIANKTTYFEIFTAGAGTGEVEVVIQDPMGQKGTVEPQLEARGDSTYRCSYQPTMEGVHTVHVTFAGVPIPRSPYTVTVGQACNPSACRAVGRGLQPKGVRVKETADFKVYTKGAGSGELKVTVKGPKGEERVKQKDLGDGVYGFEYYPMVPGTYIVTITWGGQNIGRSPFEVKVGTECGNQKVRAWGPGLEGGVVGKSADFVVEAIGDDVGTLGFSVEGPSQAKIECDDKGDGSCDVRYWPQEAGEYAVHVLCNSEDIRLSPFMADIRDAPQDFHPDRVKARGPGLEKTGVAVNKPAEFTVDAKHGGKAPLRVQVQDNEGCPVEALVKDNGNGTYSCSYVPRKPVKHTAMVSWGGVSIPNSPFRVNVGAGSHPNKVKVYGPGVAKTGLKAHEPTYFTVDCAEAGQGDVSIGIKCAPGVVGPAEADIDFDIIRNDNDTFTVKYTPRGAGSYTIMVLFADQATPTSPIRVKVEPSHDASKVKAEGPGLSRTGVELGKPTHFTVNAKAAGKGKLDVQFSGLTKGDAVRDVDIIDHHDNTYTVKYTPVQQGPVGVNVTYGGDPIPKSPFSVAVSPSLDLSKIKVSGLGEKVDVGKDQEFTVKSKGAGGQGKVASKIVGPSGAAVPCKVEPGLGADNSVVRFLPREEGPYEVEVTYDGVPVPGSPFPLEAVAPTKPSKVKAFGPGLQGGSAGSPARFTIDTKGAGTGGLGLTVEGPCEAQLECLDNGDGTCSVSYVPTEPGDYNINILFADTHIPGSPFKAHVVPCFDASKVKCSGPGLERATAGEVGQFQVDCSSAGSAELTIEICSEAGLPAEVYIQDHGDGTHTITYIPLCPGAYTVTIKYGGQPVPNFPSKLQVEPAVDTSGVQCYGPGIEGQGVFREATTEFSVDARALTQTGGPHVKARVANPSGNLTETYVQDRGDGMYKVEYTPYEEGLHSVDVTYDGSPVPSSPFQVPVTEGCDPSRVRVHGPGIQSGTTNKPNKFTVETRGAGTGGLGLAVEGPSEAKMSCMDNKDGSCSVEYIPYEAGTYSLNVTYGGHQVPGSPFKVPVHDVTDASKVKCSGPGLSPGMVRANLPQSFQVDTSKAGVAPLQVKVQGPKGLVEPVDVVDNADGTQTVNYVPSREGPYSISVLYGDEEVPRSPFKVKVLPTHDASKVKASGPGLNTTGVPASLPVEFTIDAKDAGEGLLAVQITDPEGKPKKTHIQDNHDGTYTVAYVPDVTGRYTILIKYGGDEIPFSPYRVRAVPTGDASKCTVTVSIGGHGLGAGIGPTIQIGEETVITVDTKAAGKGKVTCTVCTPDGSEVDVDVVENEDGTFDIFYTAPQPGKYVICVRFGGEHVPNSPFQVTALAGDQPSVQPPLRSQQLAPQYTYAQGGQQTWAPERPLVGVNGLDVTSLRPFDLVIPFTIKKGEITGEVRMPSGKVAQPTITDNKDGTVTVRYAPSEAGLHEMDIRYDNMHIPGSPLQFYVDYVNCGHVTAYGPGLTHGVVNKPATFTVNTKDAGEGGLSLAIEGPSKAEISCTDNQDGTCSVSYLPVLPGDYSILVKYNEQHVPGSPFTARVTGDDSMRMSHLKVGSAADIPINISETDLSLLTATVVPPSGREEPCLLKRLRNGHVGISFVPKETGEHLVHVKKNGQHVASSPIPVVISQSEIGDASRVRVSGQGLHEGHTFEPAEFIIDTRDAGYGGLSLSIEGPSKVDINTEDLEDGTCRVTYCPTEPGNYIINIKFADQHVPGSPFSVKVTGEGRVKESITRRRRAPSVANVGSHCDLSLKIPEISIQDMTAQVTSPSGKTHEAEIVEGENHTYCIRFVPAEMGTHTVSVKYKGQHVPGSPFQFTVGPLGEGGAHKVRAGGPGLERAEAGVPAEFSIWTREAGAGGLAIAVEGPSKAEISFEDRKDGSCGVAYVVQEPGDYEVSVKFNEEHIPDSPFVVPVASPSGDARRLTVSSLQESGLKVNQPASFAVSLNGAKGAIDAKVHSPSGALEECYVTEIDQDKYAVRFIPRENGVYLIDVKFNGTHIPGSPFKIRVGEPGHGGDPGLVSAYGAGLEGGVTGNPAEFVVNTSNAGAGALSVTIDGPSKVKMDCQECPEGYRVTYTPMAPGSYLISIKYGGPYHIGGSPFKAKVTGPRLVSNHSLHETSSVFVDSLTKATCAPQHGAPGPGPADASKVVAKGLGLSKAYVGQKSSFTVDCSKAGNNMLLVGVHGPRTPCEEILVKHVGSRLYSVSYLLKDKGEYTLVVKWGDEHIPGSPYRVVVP
UniProt Q9ULW0: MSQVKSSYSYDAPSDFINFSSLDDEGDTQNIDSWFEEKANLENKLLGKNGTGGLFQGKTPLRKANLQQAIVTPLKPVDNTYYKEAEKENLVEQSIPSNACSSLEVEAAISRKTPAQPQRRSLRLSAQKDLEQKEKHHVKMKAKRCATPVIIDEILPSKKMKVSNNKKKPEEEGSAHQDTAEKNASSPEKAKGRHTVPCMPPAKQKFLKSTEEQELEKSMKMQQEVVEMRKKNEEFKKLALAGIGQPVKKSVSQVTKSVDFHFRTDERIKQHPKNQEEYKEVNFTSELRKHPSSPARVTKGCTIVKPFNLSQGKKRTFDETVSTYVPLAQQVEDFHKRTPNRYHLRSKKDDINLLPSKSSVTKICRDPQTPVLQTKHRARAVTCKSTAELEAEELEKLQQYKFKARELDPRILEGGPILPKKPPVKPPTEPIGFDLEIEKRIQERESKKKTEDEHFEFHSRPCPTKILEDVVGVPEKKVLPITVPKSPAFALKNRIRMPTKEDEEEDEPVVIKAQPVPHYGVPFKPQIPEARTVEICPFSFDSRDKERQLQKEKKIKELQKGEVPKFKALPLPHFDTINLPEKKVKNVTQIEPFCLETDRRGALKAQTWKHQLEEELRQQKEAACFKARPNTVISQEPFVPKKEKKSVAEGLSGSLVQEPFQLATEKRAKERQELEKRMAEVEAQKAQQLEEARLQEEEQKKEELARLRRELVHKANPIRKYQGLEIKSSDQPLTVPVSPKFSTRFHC

Biological target: T1, Kinesin-like protein KIFC1 (human (endogenous in EC109)) (UniProt Q9BW19)
T1 sequence: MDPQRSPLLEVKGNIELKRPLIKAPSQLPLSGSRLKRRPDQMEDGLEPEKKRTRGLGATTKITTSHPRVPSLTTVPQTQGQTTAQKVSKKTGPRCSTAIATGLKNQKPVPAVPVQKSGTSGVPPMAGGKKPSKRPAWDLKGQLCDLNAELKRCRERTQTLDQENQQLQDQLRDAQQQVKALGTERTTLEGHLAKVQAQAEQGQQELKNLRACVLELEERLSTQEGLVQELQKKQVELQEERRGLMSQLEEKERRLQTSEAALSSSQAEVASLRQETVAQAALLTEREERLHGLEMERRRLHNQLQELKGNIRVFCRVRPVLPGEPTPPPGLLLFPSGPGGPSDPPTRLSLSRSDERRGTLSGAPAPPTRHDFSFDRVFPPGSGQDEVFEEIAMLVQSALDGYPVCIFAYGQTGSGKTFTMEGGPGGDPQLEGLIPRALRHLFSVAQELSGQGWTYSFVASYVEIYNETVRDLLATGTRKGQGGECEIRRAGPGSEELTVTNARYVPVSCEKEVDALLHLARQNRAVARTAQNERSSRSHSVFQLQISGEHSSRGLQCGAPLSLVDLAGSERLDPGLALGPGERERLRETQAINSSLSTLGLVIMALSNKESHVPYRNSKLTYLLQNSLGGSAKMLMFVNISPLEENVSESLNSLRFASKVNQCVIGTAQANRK
Experiment: affinity purification with mass spectrometry; Co-IP with anti-KIFC1 antibody against an IgG control, then HPLC-MS; cells treated with nocodazole and released (an estimated 70% in metaphase); cells disrupted physically rather than by detergents (NP40)

Molecule: Core histone macro-H2A.1 (from UniProt O75367 1-369)
binding: binds

Molecule: Gamma-tubulin complex component (from UniProt Q9BSJ2 1-902)
binding: binds

Molecule: Proliferation marker protein Ki-67 (from UniProt P46013 1-3256)
binding: binds

B2: ATP-binding cassette sub-family F member 2 (protein, UniProt Q9UG63 1-623)
chain: MPSDLAKKKAAKKKEAAKARQRPRKGHEENGDVVTEPQVAEKNEANGRETTEVDLLTKELEDFEMKKAAARAVTGVLASHPNSTDVHIINLSLTFHGQELLSDTKLELNSGRRYGLIGLNGIGKSMLLSAIGKREVPIPEHIDIYHLTREMPPSDKTPLHCVMEVDTERAMLEKEAERLAHEDAECEKLMELYERLEELDADKAEMRASRILHGLGFTPAMQRKKLKDFSGGWRMRVALARALFIRPFMLLLDEPTNHLDLDACVWLEEELKTFKRILVLVSHSQDFLNGVCTNIIHMHNKKLKYYTGNYDQYVKTRLELEENQMKRFHWEQDQIAHMKNYIARFGHGSAKLARQAQSKEKTLQKMMASGLTERVVSDKTLSFYFPPCGKIPPPVIMVQNVSFKYTKDGPCIYNNLEFGIDLDTRVALVGPNGAGKSTLLKLLTGELLPTDGMIRKHSHVKIGRYHQHLQEQLDLDLSPLEYMMKCYPEIKEKEEMRKIIGRYGLTGKQQVSPIRNLSDGQKCRVCLAWLAWQNPHMLFLDEPTNHLDIETIDALADAINEFEGGMMLVSHDFRLIQQVAQEIWVCEKQTITKWPGDILAYKEHLKSKLVDEEPQLTKRTHNV
binding: binds

Second part, the molecule after the results:

binding: binds
Molecule: Aurora B kinase (from UniProt Q96GD4 1-344) (enzyme)

binding: binds
Molecule: Filamin-A (from UniProt P21333 1-2647)

binding: binds
Molecule: Highly similar to Targeting protein for Xklp2 (from UniProt Q9ULW0 1-747)

binding: binds
B1: Small kinetochore-associated protein (protein, UniProt Q9Y448 1-316)
chain: MAAPEAPPLDRVFRTTWLSTECDSHPLPPSYRKFLFETQAADLAGGTTVAAGNLLNESEKDCGQDRRAPGVQPCRLVTMTSVVKTVYSLQPPSALSGGQPADTQTRATSKSLLPVRSKEVDVSKQLHSGGPENDVTKITKLRRENGQMKATDTATRRNVRKGYKPLSKQKSEEELKDKNQLLEAVNKQLHQKLTETQGELKDLTQKVELLEKFRDNCLAILESKGLDPALGSETLASRQESTTDHMDSMLLLETLQEELKLFNETAKKQMEELQALKVKLEMKEERVRFLEQQTLCNNQVNDLTTALKEMEQLLEM
